Earlier results in patent US20130251783A1, “LIPOSOMES CONTAINING PERMEATION ENHANCERS FOR ORAL DRUG DELIVERY” (Universitat Heidelberg, priority 2011, published 2013).

Assays:
[1] = tested on: two different corneal cell lines; conditions: 1-h incubation; cited from earlier work
fibroblast cell line = conditions: after 30 min, two different assays; cited from earlier work
[2] = tested on: erythrocytes and nasal mucosa; conditions: cited from earlier work

CCCCCCCCCCCCCCCC[n+]1ccccc1 [CpCl, cetylpyridinium chloride]
Concentration giving a decrease in the cell viability of 50% [1]: around 10 μM | Concentration leading to 50% survival (fibroblast cell line): around 0.19 mM | Cytotoxicity (haemolytical activity, protein leaching) [2]: comparable to that of the anionic surfactant sodium dodecyl sulphate
